# Assay results published in PMC7819943, “Rice protein-binding microarrays: a tool to detect cis-acting elements near promoter regions in rice”.
# Some of the results follow.
# Target: T1, OsSMF1 (Oryza sativa, UniProt Q6ZLB0 1-436)
# T1 sequence: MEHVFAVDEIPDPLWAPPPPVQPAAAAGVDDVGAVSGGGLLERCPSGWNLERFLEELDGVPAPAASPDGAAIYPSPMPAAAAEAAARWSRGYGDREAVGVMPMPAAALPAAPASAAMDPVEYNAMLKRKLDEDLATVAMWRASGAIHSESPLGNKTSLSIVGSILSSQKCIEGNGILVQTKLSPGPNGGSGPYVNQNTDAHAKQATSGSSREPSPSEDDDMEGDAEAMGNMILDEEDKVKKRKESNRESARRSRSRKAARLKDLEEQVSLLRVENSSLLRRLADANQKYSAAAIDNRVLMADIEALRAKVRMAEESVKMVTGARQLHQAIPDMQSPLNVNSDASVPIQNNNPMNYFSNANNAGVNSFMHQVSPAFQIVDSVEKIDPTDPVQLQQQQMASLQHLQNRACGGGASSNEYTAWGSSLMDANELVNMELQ
# Experiment: protein-binding microarray (RPBM); PBS, 2% BSA, 51.3 ng/ul salmon testes DNA, 50 uM zinc acetate, 200 nM TF, 25 C, 1 h; high values mean tight binding
# Settings: protein: recombinant; tags: N-terminal polyhistidine and DsRed monomer fusion (pET32a); chain copies: 2; label: CyDye5-dUTP incorporated in the synthesized complementary strand; 3' TTTTT single-stranded linker to array surface; dsDNA, one strand shown
# How it was run: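 Binding signal here means per-feature fluorescence intensity in arbitrary units. The values were read on an Axon 4000B scanner after a custom Agilent array, double-stranded by primer extension with Cy5-dUTP, was incubated with 200 nM protein at 25 °C for 1 h in PBS with 2% BSA, salmon testes DNA and 50 µM zinc acetate, then washed. The proteins were transcription factors with an N-terminal polyhistidine tag and DsRed, expressed in E. coli BL21-CodonPlus and purified on Ni–NTA.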
row,Sequence,binding signal
1,GCTAGCTTGTCTGTCTTTTGACTCTTCTGTTTCCATGAGGCGGAGTCACCTAGTGCAG,3380 fluorescence intensity (a.u.)
2,GGCCACGGGCGGGCCACGGCCACCGAGCGGTGAAAAGGGGCGGAGTCACCTAGTGCAG,3900 fluorescence intensity (a.u.)
3,GGAATGACGACGACGACGACGAGGAGTCATCGGCTCCGGGCGGAGTCACCTAGTGCAG,4070 fluorescence intensity (a.u.)
4,AAAGTACTCCCTATGATCTTTAATATATGATGTCATTTTACGGAGTCACCTAGTGCAG,6610 fluorescence intensity (a.u.)
5,GACTTTGGGAGGAAAAGGAGTCAAATTTCTGGTCAATGCACGGAGTCACCTAGTGCAG,22300 fluorescence intensity (a.u.)
6,GGCGACAGAGGTGGCCGCCGCGGCGTCGCACGCCACGACGCGGAGTCACCTAGTGCAG,3430 fluorescence intensity (a.u.)
7,CCCCGGACAGATCGGTCCACCTGTCCGTGACACGTGCTCACGGAGTCACCTAGTGCAG,11600 fluorescence intensity (a.u.)
8,TATCCTCTCGTTTTGTGCATGTCACCTAAATAGTTATAAACGGAGTCACCTAGTGCAG,3170 fluorescence intensity (a.u.)
9,TTGACATAAGTAGTTGTTTGGCCACTGTCGAAGTTGCAAGCGGAGTCACCTAGTGCAG,27800 fluorescence intensity (a.u.)
10,TTTGGCTGAAGCATATGTCCATCCAGCAATGTTGTACCAACGGAGTCACCTAGTGCAG,3150 fluorescence intensity (a.u.)
11,TCCGCAGCTTTCCGCGCACGCCACCTGTTCGACGGAACGCCGGAGTCACCTAGTGCAG,3350 fluorescence intensity (a.u.)
12,ATTATCCGTACCACTTTCATCCTACTCACCACCAGCAAGCCGGAGTCACCTAGTGCAG,4260 fluorescence intensity (a.u.)
13,TCCACGGGCCTCCCGGCCTCCTCGCCGCACACGTAGCCCGCGGAGTCACCTAGTGCAG,4040 fluorescence intensity (a.u.)
14,TTGTCCTAGGCTGACACGCCAGTCCCACTCTCTCCATTTACGGAGTCACCTAGTGCAG,4610 fluorescence intensity (a.u.)
15,TTAGGGTACAATTAAAACAAAATATTGATGCTTAAATTTCCGGAGTCACCTAGTGCAG,3250 fluorescence intensity (a.u.)
16,AGACTGGATTAACACTATGAGGTACATGTAACTCTCAATACGGAGTCACCTAGTGCAG,18100 fluorescence intensity (a.u.)
17,CCGCCCGGAAATGCTGCTCCCACGGCATTTTGCGCTGGCGCGGAGTCACCTAGTGCAG,3180 fluorescence intensity (a.u.)
18,CGTGGTCGACAACACCACCGACGTCGAGTCGGCGCGGCTCCGGAGTCACCTAGTGCAG,3400 fluorescence intensity (a.u.)
19,CCCAGCACCCTACTACACCAACATACTCCTACGTGGAGCACGGAGTCACCTAGTGCAG,6040 fluorescence intensity (a.u.)
20,GGCTCCGGAACTTACTCTAGCGCGCGTCGGATGACAAAATCGGAGTCACCTAGTGCAG,5060 fluorescence intensity (a.u.)
21,ACACTCCCATCCCACCTCCACCGACCGCGTCCGGTCCATCCGGAGTCACCTAGTGCAG,3580 fluorescence intensity (a.u.)

# Exported with tabs: part of the list above.
row	Sequence	binding signal
11	TCCGCAGCTTTCCGCGCACGCCACCTGTTCGACGGAACGCCGGAGTCACCTAGTGCAG	3350 fluorescence intensity (a.u.)
12	ATTATCCGTACCACTTTCATCCTACTCACCACCAGCAAGCCGGAGTCACCTAGTGCAG	4260 fluorescence intensity (a.u.)
13	TCCACGGGCCTCCCGGCCTCCTCGCCGCACACGTAGCCCGCGGAGTCACCTAGTGCAG	4040 fluorescence intensity (a.u.)
14	TTGTCCTAGGCTGACACGCCAGTCCCACTCTCTCCATTTACGGAGTCACCTAGTGCAG	4610 fluorescence intensity (a.u.)
15	TTAGGGTACAATTAAAACAAAATATTGATGCTTAAATTTCCGGAGTCACCTAGTGCAG	3250 fluorescence intensity (a.u.)
16	AGACTGGATTAACACTATGAGGTACATGTAACTCTCAATACGGAGTCACCTAGTGCAG	18100 fluorescence intensity (a.u.)
17	CCGCCCGGAAATGCTGCTCCCACGGCATTTTGCGCTGGCGCGGAGTCACCTAGTGCAG	3180 fluorescence intensity (a.u.)
18	CGTGGTCGACAACACCACCGACGTCGAGTCGGCGCGGCTCCGGAGTCACCTAGTGCAG	3400 fluorescence intensity (a.u.)
19	CCCAGCACCCTACTACACCAACATACTCCTACGTGGAGCACGGAGTCACCTAGTGCAG	6040 fluorescence intensity (a.u.)

# Following part:

row,Sequence,binding signal
1,GCGCCATGATGTTCAATCAGATGACATCATAACGTAAAGACGGAGTCACCTAGTGCAG,3570 fluorescence intensity (a.u.)
2,TTCTTTATTAGACATACTCTGCCACCACTGCACACAATCCCGGAGTCACCTAGTGCAG,3640 fluorescence intensity (a.u.)
3,GGCCTCCGCCGCGCATGTGGAGCTCCACCTCTGTCGGCATCGGAGTCACCTAGTGCAG,3930 fluorescence intensity (a.u.)
4,AGATAACGTTTTGGTATCATACAGATAACGTACGTTCTGGCGGAGTCACCTAGTGCAG,15100 fluorescence intensity (a.u.)
5,GGAGGATGCGGGTGGTGGTGGAGGAGGAGGAGGCCGAGGTCGGAGTCACCTAGTGCAG,3650 fluorescence intensity (a.u.)
6,GGCGGTTAGCATGAGCCAATAACCGTGTGCCACGTTATTTCGGAGTCACCTAGTGCAG,7000 fluorescence intensity (a.u.)
7,TGTGCCAGTCACTGACAACATGTTATCTTATGACAAAATGCGGAGTCACCTAGTGCAG,3460 fluorescence intensity (a.u.)
8,CTTGCCGTCGACGCGAAGGAACCGCCACCCGACGTCAGCTCGGAGTCACCTAGTGCAG,5610 fluorescence intensity (a.u.)
9,CACTGGCCGAAAGTCCATTTTGCTTGTGCAAGCCATGTGGCGGAGTCACCTAGTGCAG,3650 fluorescence intensity (a.u.)
10,TCGAGTGTCGCGTCGGCTAATCGGAGTGTACAGTTGTGCACGGAGTCACCTAGTGCAG,3290 fluorescence intensity (a.u.)
11,ACAGTGTGGCTGACGCCCTGCCGGTTTCTGCCGCCTCACGCGGAGTCACCTAGTGCAG,3530 fluorescence intensity (a.u.)
12,GTTCTCCTATACAACTCCACTTGTCATTAGTCATGCACTGCGGAGTCACCTAGTGCAG,4750 fluorescence intensity (a.u.)
13,CCAGTACATTTTGTACTACTACTTCGAACGGGCATGGTCGCGGAGTCACCTAGTGCAG,29700 fluorescence intensity (a.u.)
14,GCTCTATCCAATCTCCCACATCAGCCACACCATCAAAAGCCGGAGTCACCTAGTGCAG,4520 fluorescence intensity (a.u.)
15,TGCCATCACGTTTTGTGTTTTGAAGTGTTACTATAACACACGGAGTCACCTAGTGCAG,3250 fluorescence intensity (a.u.)
16,TTTGGTGGCTATGGCTACGGAATTATGCTTCTGACTTCTGCGGAGTCACCTAGTGCAG,5440 fluorescence intensity (a.u.)
17,TTAGGCTTGGGAGGAGAACTGCAGGGTGTGACATCATACTCGGAGTCACCTAGTGCAG,4750 fluorescence intensity (a.u.)
18,TGGAGTGCAACCGATGATTCAAGACGTGAACCCGTTCCATCGGAGTCACCTAGTGCAG,3490 fluorescence intensity (a.u.)
19,CCTTCACGGGCAAACCTCACAACTCACCTGCTGCTGCTATCGGAGTCACCTAGTGCAG,3430 fluorescence intensity (a.u.)
20,ATACTGAATACGTCACTAATGCACTTTGAATTTGTTGTTGCGGAGTCACCTAGTGCAG,11800 fluorescence intensity (a.u.)
21,AGCCTAGCCTCGCCGCCACCGCTTCCTCCTCCGTGGCACTCGGAGTCACCTAGTGCAG,4120 fluorescence intensity (a.u.)
